Source: patent publication US7208515B2, “Diphenylmethyl compounds useful as muscarinic receptor antagonists” (Theravance, Inc., priority 2004, dated 2007)
Some of these results come from one statement about several compounds together.

By UniProt entry, the sequences of proteins in these tests, tags left out.
UniProt P20309, whole entry: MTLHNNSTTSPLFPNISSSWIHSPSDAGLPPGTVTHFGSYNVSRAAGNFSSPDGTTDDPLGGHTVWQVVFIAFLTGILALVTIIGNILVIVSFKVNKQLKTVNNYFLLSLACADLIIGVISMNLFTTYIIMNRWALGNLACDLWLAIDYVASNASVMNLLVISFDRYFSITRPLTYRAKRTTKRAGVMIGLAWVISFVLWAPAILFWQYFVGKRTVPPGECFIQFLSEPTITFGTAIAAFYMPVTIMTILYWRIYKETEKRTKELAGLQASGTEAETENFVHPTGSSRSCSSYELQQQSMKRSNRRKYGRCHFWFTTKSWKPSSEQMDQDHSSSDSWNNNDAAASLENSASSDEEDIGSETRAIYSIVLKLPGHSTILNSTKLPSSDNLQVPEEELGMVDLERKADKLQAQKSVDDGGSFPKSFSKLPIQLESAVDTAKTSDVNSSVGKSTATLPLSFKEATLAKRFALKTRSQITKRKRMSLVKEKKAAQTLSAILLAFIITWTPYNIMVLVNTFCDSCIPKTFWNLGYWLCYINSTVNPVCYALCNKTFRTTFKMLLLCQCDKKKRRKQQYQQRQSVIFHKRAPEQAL

Target: T1, M3 muscarinic receptor subtype (hM3) (Homo sapiens, UniProt P20309)
T1 construct: expressed in transfected cells
Experiment: Radioligand binding assay ([3H]-NMS displacement)
Conditions: CHO cell membranes expressing hM3

Ki, < 50 nM:
CNCC(=O)NCCCCCN1CC[C@@H](C(C(N)=O)(c2ccccc2)c2ccccc2)C1 [Example 1]
NCC(=O)NCCCCCN1CC[C@@H](C(C(N)=O)(c2ccccc2)c2ccccc2)C1 [Example 2, 2-{(S)-1-[5-(2-Aminoacetylamino)pentyl]pyrrolidin-3-yl}-2,2-diphenylacetamide]
CC(N)C(=O)NCCCCCN1CC[C@@H](C(C(N)=O)(c2ccccc2)c2ccccc2)C1 (stereo partly drawn) [Example 3, 2-Amino-N-{5-[(S)-3-(carbamoyldiphenylmethyl)pyrrolidin-1-yl]pentyl}propionamide]
NC(=O)C(c1ccccc1)(c1ccccc1)[C@@H]1CCN(CCCCCNC(=O)C2CCCN2)C1 (stereo partly drawn) [Example 4, Pyrrolidine-2-carboxylic Acid {5-[(S)-3-(Carbamoyldiphenylmethyl)pyrrolidin-1-yl]pentyl}amide]
CNC(C)C(=O)NCCCCCN1CC[C@@H](C(C(N)=O)(c2ccccc2)c2ccccc2)C1 (stereo partly drawn) [Example 5, N-{5-[(S)-3-(Carbamoyldiphenylmethyl)pyrrolidin-1-yl]pentyl}-2-methylaminopropionamide]
CCNCC(=O)NCCCCCN1CC[C@@H](C(C(N)=O)(c2ccccc2)c2ccccc2)C1 [Example 6, 2-{(S)-1-[5-(2-Ethylaminoacetylamino)pentyl]pyrrolidin-3-yl}-2,2-diphenylacetamide]
CCCNCC(=O)NCCCCCN1CC[C@@H](C(C(N)=O)(c2ccccc2)c2ccccc2)C1 [Example 7, 2,2-Diphenyl-2-{(S)-1-[5-(2-propylaminoacetylamino)pentyl]pyrrolidin-3-yl}acetamide]
COCCNCC(=O)NCCCCCN1CC[C@@H](C(C(N)=O)(c2ccccc2)c2ccccc2)C1 [Example 8, 2-((S)-1-{5-[2-(2-Methoxyethylamino)acetylamino]pentyl}pyrrolidin-3-yl)-2,2-diphenylacetamide]
NC(=O)C(c1ccccc1)(c1ccccc1)[C@@H]1CCN(CCCCCNC(=O)CNCc2ccccc2)C1 [Example 9, 2-{(S)-1-[5-(2-Benzylaminoacetylamino)pentyl]pyrrolidin-3-yl}-2,2-diphenylacetamide]
